Columns and labels:
[1] = tested on: MES-SA/DX5 (multidrug resistant carcinoma subline of MES-SA); assay: SRB cytotoxicity test, MES-SA/DX5; format: cell-based, human; conditions: for Ratio* (MES-SA/DX5 value divided by MES-SA value): Table 4
Experimental: To determine the cytotoxicity against human tumor cell line of the test samples prepared in Examples, following sulforhodamin B (SRB) bioassy test was performed according to the method disclosed in the literature (Skehan, P., et al., J. Natl. Cancer Inst., 82, 1990, 1107-1112).
Various human tumor cell lines, i.e., A-549 (human adenocarcinoma of lung, NCI), SK-OV-3 (human ovarian tumor, NCI), SK-MEL-2 (human malignant melanoma, NCI), HCT15 (human colon adenocarcinoma, NCI), MES-SA (human uterine carcinoma, NCI) and MES-SA/DX5 (multidrug resistant carcinoma subline of MES-SA, NCI) were used in the test.
The subcultured cell lines were detached from the surface of wall using by trypsin-EDTA solution and adjusted to various concentration of cell lines, i.e., 5×10^3 cells/well (A-549, HCT15), 1×10^4 cells/well (SK-MEL-2), 5×10^3 cells/well (SK-OV-3) in 96-well flat bottom microplate. The inoculated cell lines were incubated in CO2 incubator (MCO-20AIC, SANYO Electric Co., LTd.) to be attached on the bottom of incubator and the culture media was removed with aspirator. 6 logarithmic concentrations of the diluted test samples were added to each well containing cell line at 100 μl/well in a three fold dilution manner and the cell was incubated for 48 hours. The culture media in each well was removed and 100μ of 10% trichloroacetic acid was added thereto to be left alone at 4° C. for 1 hour and to fix the cells to the bottom of the plates. […] The cell plates were shaked with titer plate shaker (KOMA Orbital Shaker KE011, KOMABIOTech) for 10 mins to exude the staining solution and to determine the absorbance at 520 nm using by microplate spectrophotometer (Sunrise, TECAN).

HCT15/CL02 = assay: SRB cytotoxicity test, HCT15/CL02; format: cell-based, human; conditions: Table 4
Experimental: To determine the cytotoxicity against human tumor cell line of the test samples prepared in Examples, following sulforhodamin B (SRB) bioassy test was performed according to the method disclosed in the literature (Skehan, P., et al., J. Natl. […] The inoculated cell lines were incubated in CO2 incubator (MCO-20AIC, SANYO Electric Co., LTd.) to be attached on the bottom of incubator and the culture media was removed with aspirator. 6 logarithmic concentrations of the diluted test samples were added to each well containing cell line at 100 μl/well in a three fold dilution manner and the cell was incubated for 48 hours. […] The cell plates were shaked with titer plate shaker (KOMA Orbital Shaker KE011, KOMABIOTech) for 10 mins to exude the staining solution and to determine the absorbance at 520 nm using by microplate spectrophotometer (Sunrise, TECAN).

SMILES	Ratio* (MES-SA/DX5 value divided by MES-SA value) [1]	Ratio** (HCT15/CL02 value divided by HCT15 value) (HCT15/CL02)	Ratio (MES-SA/DX5 value divided by MES-SA value) ([1]; Table 1)	Ratio (MES-SA/DX5 value divided by MES-SA value) ([1]; Table 2)
C=C1CCC2[C@](C)(C(=O)O)CCC[C@]2(C)[C@H]1CC[C@H](C)CCO (stereo partly drawn) [compound (b), (13S)-15-hydroxylabd-8(17)-en-18-oic acid]	0.60	0.64	–	–
C=C1CCC2C(C)(C(=O)O)CCCC2(C)C1CCC(C)CC(=O)O (stereo not drawn) [compound (c), ent-labd-8(17)-ene-15,18-dioic acid]	–	<0.72	–	–
C=C1CCC2[C@](C)(C(=O)O)CCC[C@]2(C)[C@H]1/C=C/C(C)=O (some centres unmarked) [compound (d), 13-oxo-15,16-dinorlabda-8(17),11E-dien-19-oic acid]	–	<0.92	–	–
C[C@@]1(C(=O)O)CCC[C@]2(C)c3ccc(O)cc3CCC12 (some centres unmarked) [compound (e), 13-hydroxy-8,11,13-podocarpatrien-18-oic acid]	<0.86	<0.88	–	–
CC(C)c1ccc2c(c1)[C@H](O)CC1[C@](C)(C(=O)O)CCC[C@]21C (stereo partly drawn) [compound (f), 7α-hydroxycallitirisic acid]	1.02	–	–	–
COc1cccc2c1C(=O)c1c(O)c3c(c(O)c1C2=O)C[C@@](O)(C(=O)CO)C[C@@H]3O[C@H]1C[C@H](N)[C@H](O)[C@H](C)O1 [doxorubicin, reference compound]	284.31	131.88	2061	2061
